Laboratory results published in patent US20260193326A1.
No constants are given. Whether binding was seen depends on the method and setting. A result given as binding can be weak or reduced; the word gives no strength.

Legend:
[1] = target: AAV8 (adeno-associated virus serotype 8 (AAV8)); experiment: SPR, recombinant AAV particles amine-coupled to CM5 chip
[2] = target: AAV5 (adeno-associated virus serotype 5 (AAV5)); experiment: as above
[3] = target: AAV9 (adeno-associated virus serotype 9 (AAV9)); experiment: as above
[4] = target: AAV8 (adeno-associated virus serotype 8 (AAV8)); experiment: sandwich ELISA, A4-040 coated as capture ligand, AAV8 standards, detection with HRP-conjugated A4-021

B1: A4-H2 (VHH)
VHH: VQLQASGGGFVQPGGSLRLSCAASGRSFSINTMGWFRQAPGKEREFVAVVTRGGSTYYADSVKGRFTISRDNSKNTVYLQMNSLRAEDTATYYCHIDEVRQSSWTTSNIWGQGTQVTVSS
B1 was tested, and the binding [1] was “binds”, the binding [2] was “binds” and the binding [3] was “binds”.

B2: A4-H3 (VHH)
VHH: VQLQASGGGFVQPGGSLRLSCAASGSIFSINLMGWFRQAPGKERELVAVITPGGNTYYADSVKGRFTISRDNSKNTVYLQMNSLRAEDTATYYCHVDEVRQSSWTTSNLWGQGTQVTVSS
B2 was tested, and the binding [1] was “binds”, the binding [2] was “binds” and the binding [3] was “binds”.

B3: A4-040 (VHH)
VHH: VQLQESGGGLVQPGGSLRLSCAASGRIFSINTMGWYRQAPGKQRELVATVTRGGSTNYADSVKGRFTISRDNAKNTVYLQMNSLRPEDTAVYYCHVDEIRQSSWTTSNLWGQGTQVTVSS
With B3 the binding [4] was “binds”.

B4: A4-H4 (VHH)
VHH: VQLVESGGGLVQPGGSLRLSCAASGSIFSINLMGWFRQAPGKGLELVAIITPGGNTYYADSVKGRFTISRDNSKNTVYLQMNSLRAEDTAVYYCHVDEVRQSSWTTSNLWGQGTLVTVSS
B4 was tested, and the binding [1] was “binds”, the binding [2] was “binds” and the binding [3] was “binds”.
